This passage reports cell number change and AC50 results from PubChem BioAssay AID2685 (National Center for Advancing Translational Sciences (NCATS), 2010).

The nature of this experiment: qHTS Assay for Lipid Storage Modulators in Drosophila S3 Cells.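 For cell number change: cells counted by Cell Tracker Red CMTPX staining in the red channel.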 The note with it: BODIPY lipid droplet fluorescence, 18-24 h; for cell number change: measured here: cell count max response, cells fed with added oleic acid. In short, it runs like this:
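Laser-scanning cytometry quantifies lipid droplet accumulation (500–530 nm total intensity; droplet/cell object ratio) in oleic acid-fed (400 uM added) Drosophila S3 cells treated with a concentration series. 20 uM Triacsin C defined 100% inhibition.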

The mark [1] stands for this setting: measured here: cell number channel AC50, cells fed with added oleic acid.
Where [2] appears, read: measured here: lipid fluorescence (Fed channel) AC50, cells fed with added oleic acid.

The list shows a part of the results. Shown are side measurements of this screen, not its main read-out; they come without a call. Compounds called inactive in the main read-out are mostly missing here. The note in brackets gives the kind of curve behind each potency; many fits are weak.

As to `COc1ccc(C)cc1NC(=O)CSc1nnc(-c2ccc(C)cc2)o1`, the cell number change was 46.7%. Besides, under setting [1], the AC50 is 7.31 µM [rising, partial curve, poor fit]. Moreover, the AC50 under setting [2] is 7.31 µM [rising, partial curve, poor fit].

Regarding `COc1ccc(CC(C)Nc2cccc(SC)c2)cc1` (configuration not stated), the AC50 under setting [2] is 29.1 µM [rising, single point].

On to `CCn1c(C)cc(/C=C2/SC(=O)N(CC(=O)N3CCCC3)C2=O)c1C`, for which the cell number change worked out at 5.13%. Also, under setting [2], the AC50 is 0.103 µM [falling, partial curve, poor fit].

As for `CN(C)c1ccc(C(CNC(=O)c2ccccc2Br)c2c[nH]c3ccccc23)cc1` (configuration not stated), the cell number change is -6.2%. Further, the AC50 under setting [2] was 3.66 µM [falling, full curve, poor fit].

Regarding `CN(CC(=O)Nc1ccccc1C(F)(F)F)C(=O)Cc1ccc(S(=O)(=O)N2CCOCC2)s1`, the cell number change came to 39.8%. For the same compound, the AC50 under setting [1] was 5.8 µM [rising, full curve].

For `Nc1nonc1-n1nnc(C(=O)N/N=C/c2ccc(Cl)cc2Cl)c1CN1CCCC1`, the cell number change was -58.6%. Further, the AC50 under setting [2] was 29.1 µM [falling, single point].

In the case of `COc1cc(C(=O)Oc2ccc(/C=N/NC(=O)c3ccncc3)cc2)cc(OC)c1OC`, the cell number change was -6.93%. Also, the AC50 under setting [2] was 6.51 µM [rising, single point].

`CC(Oc1cccnc1[N+](=O)[O-])C(=O)Nc1ccc(Cl)cn1` (configuration not stated): the cell number change is -13.7%. In addition, the AC50 under setting [2] is 29.1 µM [falling, single point].

On to `CC(C)(C)C(=O)/C(C#N)=C/c1cccs1`, for which the cell number change was found to be 16.2%.

For `CC(C)c1ccc(NC(=S)NN2C(C)CCCC2C)cc1` (configuration not stated), the AC50 is 3.26 µM [rising, single point] under setting [1] and 6.51 µM [rising, single point] under setting [2].

Turning to `COc1ccc(NC(=O)C(=O)NNC(=O)c2ccc(Cl)cc2Cl)cc1`, the cell number change worked out at 3.24%. In addition, the AC50 under setting [2] is 29.1 µM [rising, single point].

Turning to `CN1CCN(S(=O)(=O)c2ccc(NC(=S)NC(=O)C3CCC3)cc2)CC1`, the cell number change worked out at 16.3%. Further, under setting [1], the AC50 is 6.51 µM [rising, single point]. In addition, the half-maximal activity concentration (AC50) under setting [2] is 6.51 µM [rising, single point].

Consider `c1ccc(OCc2cc(-c3ccccc3)no2)cc1`, for which the cell number change was 42.9%. Under setting [1], the AC50 is 20.6 µM [rising, single point]. The AC50 under setting [2] was 29.1 µM [rising, single point].

Consider `N#Cc1ccc(CN2CCN(C(=O)c3cc(C4CC4)nn3-c3ccccc3)CC2)cc1`, for which the cell number change was -22.5%. In addition, the AC50 under setting [2] is 29.1 µM [falling, single point].

In the case of `COC(=O)c1c(C(=O)OC)c2cc(C)ccn2c1Cl`, the cell number change is -18.3%.

`NS(=O)(=O)c1ccc(NC(=O)CCCCCN2C(=O)c3ccccc3C2=O)cc1`: the AC50 under setting [2] was 29.1 µM [falling, single point].

Consider `CCOC(=O)c1ccc(NC(=O)CN(C)S(=O)(=O)c2ccc(Br)s2)cc1`, for which the cell number change amounted to 14.2%. Under setting [2], the AC50 was 7.31 µM [rising, partial curve].

With `COc1cc(/C=C2/C(=O)NN(c3ccc(Cl)cc3)C2=O)cc(OC)c1O`, the cell number change is 38%. Under setting [1], the AC50 is 0.00517 µM [rising, full curve, poor fit]. For the same compound, the AC50 under setting [2] was 10.3 µM [rising, partial curve].

For `COc1ccc(C2C3=C(CC(C)(C)CC3=O)Nc3c2c(=O)[nH]c2nc(C)nn32)cc1` (configuration not stated), the cell number change stood at 33.3%. Moreover, under setting [1], the AC50 was 0.0291 µM [rising, full curve].

Turning to `O=S(=O)(c1ccc(Cl)cc1)N1CCCC(C(F)(F)F)C1` (configuration not stated), the cell number change came out at 91.1%. Moreover, the AC50 under setting [1] is 29.1 µM [rising, single point].

On to `Cc1cc(C)cc(NC(=O)N2CCC(NC(=O)c3ccco3)CC2)c1`, for which the cell number change turned out to be 11.7%. For the same compound, the AC50 under setting [2] is 9.2 µM [rising, partial curve, poor fit].

For the compound `Cc1cc(Br)ccc1NC(=O)CNC(=O)c1ccc(-n2cncn2)c([N+](=O)[O-])c1`, the cell number change came to 3.6%. In addition, the AC50 under setting [2] is 29.1 µM [rising, single point].

Regarding `COc1ccc(C(=O)NC(=S)Nc2cccc(Cl)c2N2CCOCC2)cc1[N+](=O)[O-]`, the cell number change was -16.6%. Moreover, the AC50 under setting [2] is 0.058 µM [falling, full curve].

For `CC(=O)OCC(=O)Nc1ccc(Br)c(C)c1`, the cell number change was -5.39%.

As to `CC(C)CN(C(=O)CN(C)C(=O)Cc1ccc(Cl)cc1)c1c(N)n(CC(C)C)c(=O)[nH]c1=O`, the AC50 under setting [2] was 0.092 µM [rising, full curve, poor fit].

On to `Cc1cccc(N2C(=O)C(CC(=O)Nc3cccc(F)c3)N(CCc3ccncc3)C2=O)c1` (configuration not stated), for which the cell number change amounted to 18.6%. The AC50 under setting [1] is 0.103 µM [rising, full curve, poor fit].

As to `CCOC(=O)Cc1nnc(Nc2ccc(C)cc2C)c2ccccc12`, the cell number change is -3.29%. Under setting [2], the AC50 is 0.651 µM [rising, partial curve, poor fit].

Turning to `O=C(NNS(=O)(=O)c1ccc2ccccc2c1)c1cccnc1`, the cell number change is -7.95%. The AC50 under setting [2] is 5.8 µM [rising, single point].

With `CCc1cc[n+](-c2nc3ccccc3nc2[N-]S(=O)(=O)c2ccc(Br)s2)cc1`, the cell number change is -35.1%. In addition, under setting [1], the AC50 was 16.4 µM [falling, partial curve]. Also, under setting [2], the AC50 is 13 µM [falling, partial curve].

As to `COc1ccccc1COCC(O)CNCC1(N2CCCCC2)CCCCC1` (configuration not stated), the cell number change was -52.2%. The AC50 under setting [1] is 4.61 µM [falling, full curve]. In addition, under setting [2], the AC50 was 29.1 µM [falling, single point].

`O=C(NNC(=O)c1ccccn1)c1cccc([N+](=O)[O-])c1`: the cell number change amounted to 26%. For the same compound, under setting [1], the AC50 was 0.411 µM [rising, full curve, poor fit].

With `CCOc1ccccc1N1Cc2ccccc2C1`, the cell number change is 37.6%. In addition, under setting [1], the AC50 is 13 µM [rising, single point].

Take `Cc1cccc(C)c1NC(=O)C[N+](C)(C)CC(O)COc1cccc2ccccc12` (configuration not stated): the cell number change is -9.84%. Also, the AC50 under setting [1] is 7.31 µM [falling, single point]. Further, the AC50 under setting [2] is 5.8 µM [falling, single point].

On to `Cc1ccc(NS(=O)(=O)c2ccc(OCC(=O)NCc3cccnc3)cc2)cc1`, for which the cell number change amounted to 15.5%. Besides, the AC50 under setting [2] is 3.26 µM [rising, full curve, poor fit].

In the case of `CCC1C(=O)c2ccccc2N(C)C1=O` (configuration not stated), the cell number change was 15%. The AC50 under setting [1] is 3.66 µM [falling, single point]. Besides, the AC50 under setting [2] was 20.6 µM [rising, single point].

Turning to `Cc1ccc(-c2cnc3n2CCCCC3)cc1`, the cell number change was -11%. For the same compound, the AC50 under setting [1] is 0.651 µM [rising, full curve]. Moreover, the AC50 under setting [2] is 0.231 µM [rising, full curve].

Consider `CCOc1ccc(NC(=O)CCn2c(=O)[nH]c3ccsc3c2=O)cc1`, for which the cell number change was -4.42%. Also, under setting [1], the AC50 is 6.51 µM [falling, single point]. The AC50 under setting [2] is 0.651 µM [falling, partial curve, poor fit].

In the case of `COc1cccc(N2CC(=O)N(NC(=O)c3sc4nc(C)cc(C)c4c3N)CC2=O)c1`, the cell number change is 25.1%. Moreover, the AC50 under setting [2] was 2.06 µM [rising, full curve, poor fit].

Take `OCCN(CCCn1c(C(F)(F)F)nc2ccccc21)c1nc(CN2CCCCC2)cs1`: the cell number change was 24%. Also, under setting [2], the AC50 is 10.3 µM [falling, single point].

For `CC1CCN(S(=O)(=O)c2ccc(NC(=O)C3CC3)cc2)CC1`, the cell number change was found to be 5.71%.

With `COc1ccc(/C(O)=C2/C(=O)C(=O)N(CCN(C)C)C2c2cccnc2)cc1OC` (configuration not stated), the cell number change was 57.3%. In addition, the AC50 under setting [1] is 29.1 µM [rising, single point]. Besides, the AC50 under setting [2] is 0.731 µM [rising, single point].

For `Cc1ccc2c(c1)N(CCC(=O)NCc1ccc3c(c1)OCO3)C(=O)CO2`, the cell number change stood at 6.03%. Moreover, the AC50 under setting [2] was 2.06 µM [falling, partial curve].

Consider `O=C(Cn1c(=O)c2sccc2n(Cc2cccc([N+](=O)[O-])c2)c1=O)NCCc1ccccc1`, for which the cell number change amounted to 13.9%. Also, the AC50 under setting [2] was 10.3 µM [rising, partial curve].

Take `O=C(c1c[nH]c(C(=O)C(Cl)(Cl)Cl)c1)c1ccc(F)cc1Cl`: the cell number change is -12%. Further, the AC50 under setting [1] is 0.517 µM [falling, single point]. Moreover, the AC50 under setting [2] is 1.16 µM [falling, full curve, poor fit].

`Cc1cc2nccc(-c3ccc(Cl)c([N+](=O)[O-])c3)n2n1`: the cell number change was 26.2%.

As for `Cc1csc(SCC(=O)N2CCN(S(=O)(=O)c3ccccc3)CC2)n1`, the cell number change worked out at 2.23%.

On to `COc1cc(CN(C2CCCCC2C)S(=O)(=O)c2ccc(S(=O)(=O)NC3CC3)cc2)cc(OC)c1OC` (configuration not stated), for which the cell number change amounted to 3.34%. Besides, under setting [2], the AC50 was 18.4 µM [falling, single point].

As for `CC1(C)NC(=O)N(CC(O)COc2cccc(F)c2)C1=O` (configuration not stated), the cell number change was -34.7%. Also, the AC50 under setting [1] is 23.1 µM [falling, single point]. For the same compound, the AC50 under setting [2] is 0.82 µM [falling, full curve].

Take `CCOC(=O)Cn1c(=O)oc2cc(S(=O)(=O)Nc3cc(Cl)ccc3OC)ccc21`: the cell number change was found to be 8.75%. The AC50 under setting [2] was 4.61 µM [rising, partial curve, poor fit].

In the case of `CSc1nc2sc3c(c2c(=O)[nH]1)CCc1ccccc1-3`, the cell number change was -41.4%. In addition, the AC50 under setting [1] is 13 µM [falling, partial curve]. For the same compound, under setting [2], the AC50 is 14.6 µM [falling, partial curve].

As for `CC1=CC2=NC(=O)CC(C)(C(=O)N(CC(=O)NC3CCCC3)Cc3ccccc3)N2C=C1` (configuration not stated), the cell number change was -21%. Further, the AC50 under setting [2] was 6.51 µM [falling, single point].

Take `Nc1nc(NCCOCCO)nc(Nc2cccc(F)c2)c1[N+](=O)[O-]`: the cell number change is 26.8%.

On to `Cc1cc(C)cc(NC(=O)Cn2cc(C=O)c3ccccc32)c1`, for which the cell number change is -10.6%. Moreover, the AC50 under setting [2] was 0.184 µM [falling, full curve, poor fit].

For `CC12CCC(C(=O)Nc3c(Cl)cccc3Cl)(C(Br)C1=O)C2(C)C` (configuration not stated), the cell number change is 3.1%. The AC50 under setting [2] was 0.731 µM [falling, full curve, poor fit].

For the compound `Cc1cc(C(=O)Nc2cc(S(C)(=O)=O)ccc2Cl)no1`, the cell number change was 6%.

For the compound `CCN(CC)C(=O)c1sc(N)c(C#N)c1C`, the cell number change worked out at 1.17%. For the same compound, the AC50 under setting [2] was 20.6 µM [rising, single point].

For the compound `COc1ccc(C)cc1NC(=O)c1cc(S(=O)(=O)N2CCCC2)cn1C`, the cell number change came to 14.1%. Besides, the AC50 under setting [2] was 0.731 µM [rising, single point].
